## Results from one PubChem assay

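A cell-based FRET test of anthrax lethal toxin entry, tracked through the 460 nm emission signal; the cell line is not named here. Each compound was tested as a concentration series from about 0.0005 to 40 µM. The number is the fitted AC50 of the 460 nm signal alone; lower values mean a more potent effect. A falling signal goes with compounds filed as inhibitors or cytotoxic, a rising one with activators or fluorescent compounds (inferred from the filed classes).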

Values are in nM. Common to all entries: measured here: 460 nm channel. This is a side read-out of the assay, for part of the compounds, not drawn at random. A potency from a partial, single-point or poor curve is only a rough figure. The first word of each remark tells which way the curve ran; it can be opposite to the aim of the assay.

CC1CCCN(C(=O)c2ccc3c(c2)C(=O)N(CCC2=CCCCC2)C3=O)C1 (centres unmarked) read AC50 15848 nM (falling, partial curve).
N#Cc1ccc2ccn(CC(=O)NCc3ccccc3)c2c1 read AC50 12589 nM (rising, single point).
Cc1cccc(N2CCN(C(=O)c3cc4c(C)nc5ccccc5c4o3)CC2)c1C read AC50 10000 nM (falling, partial curve).
CC1(C)C(=O)C(c2ccccc2)=C2CN3C(=O)N(CCc4ccccc4)C(=O)C3(Cc3ccc(F)cc3)C=C21 (centres unmarked) read AC50 31622 nM (falling, single point).
CCOC(=O)c1ccc(-c2ccc(C(=O)Nc3cccnc3)o2)cc1 read AC50 15848 nM (falling, partial curve).
Clc1ccc(C2CC(c3ccco3)n3ncnc3N2)cc1Cl (centres unmarked) read AC50 10 nM (falling, full curve, poor fit).
O=C1c2[nH]nc(-c3ccccc3O)c2C(c2cccc(Cl)c2)N1CC1CCCO1 (centres unmarked) read AC50 1585 nM (rising, partial curve).
c1cc(-c2sc(-c3ccncc3)c(-c3ccncc3)c2-c2ccncc2)ccn1 read AC50 2512 nM (rising, single point).
Cc1cc(=O)[nH]c(SCC(=O)Nc2ccc(Br)cn2)n1 read AC50 6310 nM (rising, partial curve).
CCOC(=O)c1cc2c(=O)n3ccccc3nc2n(Cc2ccc(Cl)cc2)c1=N read AC50 3981 nM (rising, full curve, poor fit).
Oc1c(CN2CCCCC2)cc(Br)c2cccnc12 read AC50 15848 nM (falling, single point).
Cn1cnc2c(NCc3ccccc3)nc(NCCO)nc21 read AC50 12589 nM (falling, single point).
CC(C)C(NC(=O)c1ccc(S(=O)(=O)N2CCOCC2)cc1)c1nc2ccccc2[nH]1 (centres unmarked) read AC50 15.85 nM (rising, full curve, poor fit).
CC(=O)NCCNc1nc(-c2ccc(N(C)C)cc2)nc2ccccc12 read AC50 12589 nM (falling, single point).
CCCCCCCCn1sccc1=O read AC50 6310 nM (falling, full curve).
CCCCn1c(=NC(=O)c2cccnc2)c(C(=O)OCC)cc2c(=O)n3ccccc3nc21 read AC50 15848 nM (rising, single point).
COCC(=O)Nc1ccccc1NC(C)=O read AC50 316.2 nM (falling, full curve, poor fit).
CN(Cc1ccco1)c1nc(-c2ccc3c(c2)OCO3)nc2ccccc12 read AC50 12589 nM (falling, partial curve).
O=C(Cn1nnc2ccccc2c1=O)Nc1ccc2c(c1)CCC2 read AC50 31622 nM (falling, single point).
CCCCOc1ccccc1C1C(C(=O)OC)=CN(CC)C=C1C(=O)OC read AC50 10000 nM (rising, partial curve).
Oc1ccc(N2CCN(C(c3ccncc3)c3nnnn3C3CCCC3)CC2)cc1 (centres unmarked) read AC50 12589 nM (rising, single point).
C[C@]12N[C@@H](Cc3ccccc31)c1ccccc12 read AC50 12589 nM (falling, single point).
O=C(NCc1ccccn1)c1ccc(NC(=O)c2ccco2)cc1 read AC50 5012 nM (rising, single point).
COc1cccc(Nc2ncc3nc(-c4ccc(Cl)cc4)c(=O)n(CCC#N)c3n2)c1 read AC50 12589 nM (rising, partial curve).
CCOc1ccc(N2CC(C(=O)NCCCN3CCOCC3)CC2=O)cc1 (centres unmarked) read AC50 5012 nM (falling, single point).
O=S(=O)(NCC(c1cccnc1)N1CCN(c2ccc(F)cc2)CC1)c1cc(F)ccc1F (centres unmarked) read AC50 19952 nM (rising, partial curve).
Cn1c(=O)c2c(nc(CN3CCc4ccccc4C3)n2Cc2ccc(F)cc2)n(C)c1=O read AC50 10000 nM (rising, partial curve).

Repeated from the top, 2 entries:

Compound	AC50 (nM)	remark
CC1CCCN(C(=O)c2ccc3c(c2)C(=O)N(CCC2=CCCCC2)C3=O)C1 (centres unmarked)	15848	falling, partial curve
N#Cc1ccc2ccn(CC(=O)NCc3ccccc3)c2c1	12589	rising, single point

The results are deposited in PubChem (AID912; NCATS, 2007).